Results reported in paper PMC7062800.
For at least one entry, the source does not settle the construct or the ends of the probe. A negative result means that nothing was seen under these conditions. For part of these data: At least one verdict rests on a figure or table, not on a statement of the authors. For part of these data: A weaker result is weaker than the reference pair of the same experiment.

Key:
[1] = tested on: RdhK6 (CprK1) (Desulfitobacterium hafniense DCB-2); test: EMSA; conditions: EMSA: 100 ng DNA, 2 uM protein, 200 uM effector, 15 uL, 40% glycerol, 10 mM MgCl2, 500 mM NaCl, 5 mM EDTA, 10 mM DTT, 30 min, recombinant protein
[2] = tested on: RdhK1 (CprK4) (Desulfitobacterium hafniense DCB-2); test: EMSA; conditions: EMSA: 100 ng DNA, 2 uM protein, 200 uM effector, 15 uL, 40% glycerol, 10 mM MgCl2, 500 mM NaCl, 5 mM EDTA, 10 mM DTT, 30 min, recombinant protein

GAATTCTCAGGCGATGTAACCGCTTTCAAAGTTAATACACATTAATACTCTTAACAATGTGATAGCTATGATTGCACCG (double strand) [mgl-DB7]
binding result ([1]; 200 uM 3,5-DCP): no binding
binding result ([1]; no effector): no binding
binding result ([2]; 200 uM 3,5-DCP): binds more weakly
binding result ([2]; 200 uM Cl-OHPA): binds more weakly

GAATTCTCAGGCGATGTAACCGCTTTCAGCCTCTAGTGGCTGGCTTGATCTTAACAATGTGATAGCTATGATTGCACCG (double strand) [mgl-noDB]
binding result ([1]; Cl-OHPA or 3,5-DCP): no binding
binding result ([2]; Cl-OHPA or 3,5-DCP): no binding
